Taken from: PubChem BioAssay AID652272 (Drosophila RNAi Screening Center, 2013)

Assay: 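Genome-wide knock-down search for components of Hedgehog signalling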 (primary screen)
System: Drosophila clone 8 (Cl8) cells
Reagent: long dsRNA against Drosophila genes
Read-out: 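Plate reader light from a firefly reporter under a ptc promoter fragment that responds to Hedgehog, with Renilla light as transfection reference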
Reading the numbers: firefly Hh reporter signal: higher = more ptc reporter light; Renilla reference signal: higher = more Renilla control light
Call rule: 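Called a hit if the two-replicate mean z-score lies below -2 or above +3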
Meaning of the calls: active = hit: reporter lowered or raised; inactive = not a hit
In all, the deposit lists about 21,000 reagents; shown is a random part of those with a known target gene and a result. Of all reagents, 503 (2.4%) were called active. 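Raw plate light values, not normalised; calls rest on replicate z-scores that were not deposited; hits include reporter decreases as well as increases.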 Entries without a mark were called inactive. No sequences are given here. The record does not give: the amount of reagent, the time to read-out.

Which result is listed for Cep89 [DRSC07110]?
firefly Hh reporter signal, replicate 1: 92080; firefly Hh reporter signal, replicate 2: 33002; Renilla reference signal, replicate 1: 2491; Renilla reference signal, replicate 2: 330

For CG9030 [DRSC20139], what was measured?
firefly Hh reporter signal, replicate 1: 86004; firefly Hh reporter signal, replicate 2: 1.93e5; Renilla reference signal, replicate 1: 1810; Renilla reference signal, replicate 2: 8417

Which result is listed for svr [DRSC17293]?
firefly Hh reporter signal, replicate 1: 4.37e5; firefly Hh reporter signal, replicate 2: 1.91e5; Renilla reference signal, replicate 1: 21090; Renilla reference signal, replicate 2: 3847

What did the screen give for svr [DRSC18841]?
firefly Hh reporter signal, replicate 1: 1.47e5; firefly Hh reporter signal, replicate 2: 2.73e5; Renilla reference signal, replicate 1: 5937; Renilla reference signal, replicate 2: 11556

With CG10553 [DRSC14254], how do the results read?
firefly Hh reporter signal, replicate 1: 6.21e5; firefly Hh reporter signal, replicate 2: 89129; Renilla reference signal, replicate 1: 41536; Renilla reference signal, replicate 2: 3126

Which result is listed for CG32281 [DRSC08236]?
firefly Hh reporter signal, replicate 1: 78928; firefly Hh reporter signal, replicate 2: 65122; Renilla reference signal, replicate 1: 3878; Renilla reference signal, replicate 2: 2839

For CG32249 [DRSC08101], what was measured?
firefly Hh reporter signal, replicate 1: 5.03e5; firefly Hh reporter signal, replicate 2: 1.40e5; firefly Hh reporter signal, replicate 3: 1.11e5; Renilla reference signal, replicate 1: 3963; Renilla reference signal, replicate 2: 3731

Which result is listed for CG32249 [DRSC08177]?
firefly Hh reporter signal, replicate 1: 79003; firefly Hh reporter signal, replicate 2: 86544; Renilla reference signal, replicate 1: 7296; Renilla reference signal, replicate 2: 6464

For RpS3 [DRSC16838], what does the deposit list?
firefly Hh reporter signal, replicate 1: 2.66e5 (active); firefly Hh reporter signal, replicate 2: 36061; Renilla reference signal, replicate 1: 19669; Renilla reference signal, replicate 2: 2048

What is on record for CG17780 [DRSC15265]?
firefly Hh reporter signal, replicate 1: 5.28e5; firefly Hh reporter signal, replicate 2: 89680; Renilla reference signal, replicate 1: 27325; Renilla reference signal, replicate 2: 3227

How did the screen score CG11906 [DRSC06096]?
firefly Hh reporter signal, replicate 1: 90025; firefly Hh reporter signal, replicate 2: 69972; Renilla reference signal, replicate 1: 2196; Renilla reference signal, replicate 2: 5539

Which result is listed for CG12713 [DRSC09900]?
firefly Hh reporter signal, replicate 1: 92343; firefly Hh reporter signal, replicate 2: 47232; Renilla reference signal, replicate 1: 3757; Renilla reference signal, replicate 2: 1826

Reformatted: results already given.
predicted target	dsRNA	firefly Hh reporter signal, replicate 1	firefly Hh reporter signal, replicate 2	firefly Hh reporter signal, replicate 3	Renilla reference signal, replicate 1	Renilla reference signal, replicate 2
CG9030	DRSC20139	86004	1.93e5		1810	8417
svr	DRSC17293	4.37e5	1.91e5		21090	3847
